Results are given in words; binding and its absence hold for the method and conditions named. Some binding calls cover weakened binding; strength is not graded here.
Legend:
[1] = target: cynomolgus TNFR2 (Macaca fascicularis); test: cell binding, flow cytometry or imaging
[2] = target: human TNFR2 (Homo sapiens) (UniProt P20333); test: cell binding, flow cytometry or imaging
[3] = target: human TNFR2 (Homo sapiens) (UniProt P20333); test: flow cytometry on HEK293T cells stably overexpressing human TNFR2
[4] = target: cynomolgus TNFR2 (Macaca fascicularis); test: flow cytometry on HEK293T cells stably overexpressing the receptor
[5] = target: human TNFR2 (Homo sapiens) (UniProt P20333); test: as above
[6] = target: cynomolgus TNFR2 (Macaca fascicularis); test: flow cytometry on HEK293T cells stably overexpressing cynomolgus TNFR2
[7] = target: human TNFR2 (Homo sapiens) (UniProt P20333); test: flow cytometry on HEK293T cells stably overexpressing human TNFR2, Alexa Fluor 647 secondary antibody

Chains of the proteins cited; added tags and fusions are not shown. Lines headed by an entry give the natural chain unless they say otherwise; changes in a name come on top.
UniProt P20333: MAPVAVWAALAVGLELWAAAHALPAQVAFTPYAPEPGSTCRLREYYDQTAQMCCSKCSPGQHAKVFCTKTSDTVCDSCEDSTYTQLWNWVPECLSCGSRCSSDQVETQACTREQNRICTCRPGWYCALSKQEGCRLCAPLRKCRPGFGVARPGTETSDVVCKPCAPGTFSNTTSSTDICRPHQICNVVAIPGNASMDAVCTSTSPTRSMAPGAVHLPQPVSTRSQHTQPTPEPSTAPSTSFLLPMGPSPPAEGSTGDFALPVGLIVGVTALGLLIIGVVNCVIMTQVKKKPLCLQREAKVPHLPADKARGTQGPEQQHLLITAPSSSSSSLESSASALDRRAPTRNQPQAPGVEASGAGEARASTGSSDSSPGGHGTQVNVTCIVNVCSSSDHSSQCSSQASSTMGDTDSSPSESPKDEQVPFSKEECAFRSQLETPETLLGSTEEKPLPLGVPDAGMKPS

binding [1]: binds
binding [2]: binds
binding [3]: binds
binding [4]: binds
binding [5]: binds
binding [6]: binds
binding [7]: binds
B1: R2_mAb-3 (antibody, V domains shown)
VH: QVQLQESGPGLVKPSETLSLTCTVSGGSISSYYWSWIRQAPGKGLEWIGYIYYSGSTNYNPSLKSRVTISVDTSKNQFSLKLSSVTAADTAVYYCARDDGSSDYGMDVWGQGTTVTVSS
VL: AIQLTQSPSSLSASVGDRVTITCRASQGISSALAWYQQKPGKAPKLLIYDASSLESGVPSRFTGSGTDFTLTISSLQPEDFATYYCQQFNNYMYTFGQGTKLEIK
